# Source: PubChem BioAssay AID485318 (Broad Institute, 2010)
# Sequences of proteins named here, by UniProt entry; tags and fusion partners are left off. A change or cut given only in a name is not applied to a line headed by its entry.
# UniProt O15379: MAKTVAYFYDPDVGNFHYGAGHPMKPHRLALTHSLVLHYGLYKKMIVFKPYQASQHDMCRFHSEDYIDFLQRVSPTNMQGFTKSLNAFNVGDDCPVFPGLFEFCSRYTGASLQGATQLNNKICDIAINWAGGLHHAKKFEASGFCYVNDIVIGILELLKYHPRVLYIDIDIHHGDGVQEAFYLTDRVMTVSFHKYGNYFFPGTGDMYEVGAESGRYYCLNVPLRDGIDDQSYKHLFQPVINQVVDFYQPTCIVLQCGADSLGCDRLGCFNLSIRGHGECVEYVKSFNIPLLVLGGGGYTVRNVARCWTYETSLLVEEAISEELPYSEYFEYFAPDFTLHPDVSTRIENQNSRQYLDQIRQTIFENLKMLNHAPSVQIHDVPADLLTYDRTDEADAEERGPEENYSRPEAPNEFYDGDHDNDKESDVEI
# Screen size: about 1,400 compounds; fewer than 10 were called active.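 How the source made its calls: active means fluorescence-lowering compounds whose fitted half-maximal concentration is at or below ten times the highest valid dose tested; inconclusive means flat curve at 30 to 70% inhibition, or poor fit; inactive means the rest.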 The list shows a part of the results.
# Molecular target: Histone deacetylase 3 (Homo sapiens) (UniProt O15379)
# Assay: HDAC3 deacetylase inhibitors, dose response, counter-screen for JMJD2C/GASC1 demethylase inhibitor project, biochemical, fluorescence, cherry-picked samples (AID 485318);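 further: enzyme preincubated with compound before substrate and trypsin were added; 0% = neutral control wells and -100% = SAHA positive control wells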
# Details: recombinant HDAC3, fluorogenic peptide/trypsin coupled; at 12 µM (top of the series)
row,Structure (SMILES),"activity change, negative = inhibition"
1,C=CCNC(=S)NNC(=O)COc1cccc(Cl)c1,inactive: -0.462%
2,CCn1c(SCC(=O)NCc2ccco2)nnc1-c1cccs1,inactive: -0.00731%
3,Nc1cc(OC(=O)c2ccccc2Br)nn1S(=O)(=O)c1ccccc1,inactive: 0.388%
4,CN(CCCNC(=O)CSc1cc(=O)n(C)c2ccc(Cl)cc12)Cc1ccccc1,inactive: 0.623%
5,O=C(NCc1nnc(SCC(=O)N2CCCCC2)o1)c1c(F)cccc1F,inactive: -0.609%
6,Cc1cc(C)c2cc(C#N)c(SCC(=O)Nc3ccc4c(c3)OCO4)nc2c1,inactive: 0.645%
7,CN(C)CCOc1ccc(-c2c(-c3ccccc3)sc3ccccc23)cc1,inactive: 0.31%
8,Cn1c(=O)c2[nH]c(N=NNc3ccccc3F)nc2n(C)c1=O,inactive: -0.988%
9,O=C1CC(N2CCC(O)(c3ccc(Cl)cc3)CC2)C(=O)N1Cc1ccc(N2CCCC2=O)cc1 (centres undefined),inactive: 0.431%
10,Cn1nc(NC(=O)C(C)(C)C)c2c(F)cccc21,inactive: 0.111%
11,COc1ccc(N=Cc2cccc(C)c2O)cc1Cl,inactive: -0.17%
12,O=c1[nH]cnc2c1c(-c1ccccc1)cn2-c1ccccc1,inactive: 0.0419%
13,Cc1csc(SCC(=O)Nc2ccccc2C)n1,inactive: -0.0897%
14,Cc1ccc(C)c(S(=O)(=O)Nc2cc(SCC(=O)O)c(O)c3ccccc23)c1,inactive: -0.0417%
15,COc1ccc(C)cc1-n1nnnc1SC/C(O)=C(\C#N)c1nc2ccccc2[nH]1,inactive: -0.515%
16,CCCS(=O)(=O)N1CCN(S(=O)(=O)c2ccccc2[N+](=O)[O-])CC1,inactive: -0.268%
17,COc1cc([N+](=O)[O-])ccc1NC(=O)CSc1nccn1C,inactive: 0.071%
18,COc1ccc(/C=N/NS(=O)(=O)c2ccc(NC(C)=O)cc2)cc1,inactive: 0.054%
19,CCCc1nn(C)c(C(=O)Nc2ccc(C)c(C)c2)c1Cl,inactive: -0.267%
20,Cc1cccc(NCc2ccc(O)c3ncccc23)c1,inactive: 0.74%
21,COc1ccc(S(=O)(=O)Nc2cccc3c2O[C@H](CN(C)Cc2ccc(C(=O)O)cc2)[C@@H](C)CN([C@H](C)CO)C3=O)cc1,inactive: 0.333%
22,CC(=O)c1cc2c(O)c(O)ccc2o1,inactive: 0.648%
23,Cc1c(NC(=O)C2Cc3ccccc3CN2C(=O)c2ccco2)c(=O)n(-c2ccccc2)n1C (centres undefined),inactive: 0.159%
24,O=C(Nc1c(F)cc(F)cc1Br)c1ccco1,inactive: 0.234%
25,O=C(NCCNc1ccc([N+](=O)[O-])cc1C(F)(F)F)c1ccccc1,inactive: 0.504%
26,Cc1cc(SCC(=O)c2ccccc2)n2nc(C)nc2n1,inactive: 0.67%
27,Cc1ccc(-c2nnc(SC(C)C(=O)NCC3CCCO3)nc2-c2ccc(C)cc2)cc1 (centres undefined),inactive: 0.403%

# Copied from the list.
# In activity change, negative = inhibition, CN(C)CCOc1ccc(-c2c(-c3ccccc3)sc3ccccc23)cc1 has inactive: 0.31%
# In activity change, negative = inhibition, Cc1csc(SCC(=O)Nc2ccccc2C)n1 has inactive: -0.0897%
# In activity change, negative = inhibition, Cc1cccc(NCc2ccc(O)c3ncccc23)c1 has inactive: 0.74%

# Carrying on.

row,Structure (SMILES),"activity change, negative = inhibition"
1,Cc1c(C(=O)N2CCC3(CC2)CC(=O)c2ccccc2O3)cccc1[N+](=O)[O-],inactive: -0.102%
2,O=C(NNC(=O)c1cccnc1Cl)c1ccc(F)cc1,inactive: 0.569%
3,CCOC(=O)c1ccc2c(c1)nc(COc1ccc3ccccc3c1)n2CC,inactive: 0.593%
4,C[C@@H](NC(=O)Cn1cnc2c(OCc3ccccc3)ncnc21)c1cccc2ccccc12,inactive: 0.883%
5,C#CCNC(=O)C1=C[C@@H](c2ccc(C(F)(F)F)cc2)C[C@@H](OCCCCO)O1,inactive: -0.00206%
6,Cc1ccc(S(=O)(=O)N2CCOCC2)cc1NC(=O)COC(=O)c1cc(=O)[nH]c2ccccc12,inactive: 0.217%
7,CCCCN1CC[C@H]2C=CC[C@@H](C(=O)Nc3ccc(OC)cc3)[C@H]2C1=O,inactive: -0.459%
8,C#CCOCCOCCOCCNc1nc(N2CCN(C(=O)CCCCCCCCCCNC(=O)[C@H]([C@@H](C)CC)n3cc(CCCCN=C(N)N)nn3)CC2)nc(N2CCN(C(=O)CCCCCCCCCCNC(=O)[C@H](CCCCN)n3cc(C)nn3)CC2)n1,inactive: -0.429%
9,COc1ccc(NC(=O)N(C)C[C@H]2Oc3ccc(NC(=O)CCN4CCOCC4)cc3C(=O)N([C@H](C)CO)C[C@@H]2C)cc1,inactive: 0.441%
10,CCn1nc(C(=O)NNC(=O)COc2ccc(OC)cc2)c2ccccc2c1=O,inactive: 0.103%
11,COc1ccc(N2CCN(C(=O)CSc3nnc(-c4cccnc4)n3-c3ccccc3)CC2)cc1,inactive: -0.062%
12,O=C(NCc1nnc(SCC(=O)N2CCCC2)o1)c1ccccc1F,inactive: 0.414%
13,Cc1cc(NC(=O)Nc2c[nH]c(=O)[nH]c2=O)ccc1Br,inactive: -0.238%
14,CCn1c(O)c(N=NC2=NC(=O)CS2)c2ccccc21,inactive: -0.261%
15,CCN(CC)C(=O)[C@H]1CC(CC(=O)NCc2cccc(C(F)(F)F)c2)C(=O)N2CCc3c([nH]c4ccccc34)[C@]12C (some centres undefined),inactive: 0.0358%
16,COc1ccccc1CNC(=O)COc1ccc(S(=O)(=O)N2CCOCC2)cc1C,inactive: -0.41%
17,Nc1c(Cl)ncnc1NCc1cccnc1,inactive: 0.296%
18,Cc1ccc(/C(N)=N/OC(=O)CCC2CCCCC2)cc1,inactive: 0.336%
19,N=C1C(c2nc3ccccc3s2)=C(O)CN1Cc1ccccc1,inactive: 0.082%
20,CC(C)NC(=O)N(C)C[C@H]1Oc2ccc(NC(=O)C3CC3)cc2C(=O)N([C@H](C)CO)C[C@@H]1C,inactive: 0.135%
21,COc1ccc(S(=O)(=O)Nc2ccc3c(c2)CC(=O)N([C@@H](C)CO)C[C@H](C)[C@@H](CN(C)S(=O)(=O)c2ccc(F)cc2)O3)cc1,inactive: -0.0258%
22,CCNC(=O)c1ccc2c(c1)S(=O)(=O)c1ccccc1C2=O,inactive: 0.35%
23,O=C(CSc1nnnn1-c1ccc(Cl)cc1)N1CCc2ccccc2C1,inactive: -0.296%
24,CCN1CCC(=NNC(=O)c2ccc(C)c([N+](=O)[O-])c2)CC1,inactive: -0.151%
25,CCOc1cc(CN2CCN(CCc3ccccc3)C(CCO)C2)ccc1OC (centres undefined),inactive: -0.41%
26,Cc1ccc(C2CC(c3ccccc3)=NN2C(=S)Nc2ccccc2)o1 (centres undefined),inactive: 0.186%
27,N#CC(=C1CCCC1)c1nc(-c2ccccc2)cs1,inactive: -0.44%
